The values that follow are results of earlier work, collected in patent US11913031B2, “Method to reproduce circadian rhythms on a microfluidic chip” (Yissum Research Development Company of the Hebrew …, priority 2017, dated 2024).

Molecules are shown by their SMILES.

The subject of the data set is liver. To be noted: Table 4 compound list, toxicological end-point; cited from earlier work.

For the compound `CCCCc1oc2ccccc2c1C(=O)c1cc(I)c(OCCN(CC)CC)c(I)c1` [Amiodarone], the Toxicity result is “Steatosis”.
